# Reference: patent US8063022B1, “Methods for preventing formation of inhibitory antibodies in the setting of gene therapy” (priority 1999, dated 2011)
# For at least one compound, name, drawing or mass did not settle the structure.
# Test system: Hemophilia B knockout mice
# Assay type: in vivo, mouse
# Conditions: hemophilia B mice injected with AAV-mF.IX, with or without immunomodulation
# Method: A cohort of six mice were injected intramuscularly with an adeno-associated virus (AAV) vector encoding the murine F.IX transgene (total dose 1×10^11 vector genomes/mouse). Mice were bled at monthly intervals via tail vein transection, and clotting times of plasma were measured by aPTT assay. […] Two other cohorts of mice received immunomodulation around the time of vector administration in an effort to suppress inhibitor formation. One cohort (n=4) received anti-CD40L antibody at a total dose of 0.4 mg per mouse given in four divided doses (0.1 mg at days -3, 0, 3, 6) while the other cohort received cyclophosphamide (CYP, n=4) at doses of 50 mg/kg per mouse biweekly at four time points.
# Hemophilia B knockout mice were injected intramuscularly with AAV mF.IX (1×10^11) at day 0, without or with immunomodulation therapy. The mice were bled at monthly time points in citrate. The assays which were performed included a clotting based-apTT (measure of correction of hemostatic defect) assay and Bethesda titer (1 BU defined as 50% residual FIX in a 2 hour 50:50 mix). In addition, antibody assays, Western blot analysis and ELISA assays were performed. The immunomodulatory strategies used to address formation of antibodies to the transgene product were as follows: […]
compound,measurement,value
C=CC[C@@H]1/C=C(\C)C[C@H](C)C[C@H](OC)[C@H]2O[C@@](O)(C(=O)C(=O)N3CCCC[C@H]3C(=O)O[C@H](/C(C)=C/[C@@H]3CC[C@@H](O)[C@H](OC)C3)[C@H](C)[C@@H](O)CC1=O)[C@H](C)C[C@@H]2OC [FK506],correction of the aPTT (in words),shorter aPTT coagulation times
